Reference: PubChem BioAssay AID2551 (National Center for Advancing Translational Sciences (NCATS), 2010)
“And” between values parts separate entries of the source, which are not always exact repeats. Equal values may be shown once. The whole screen tested about 310,000 compounds, of which about 17,000 (5.5%) were called active. This list was built around the results that the source calls inconclusive (neither active nor inactive); the mix of calls is not that of the screen. Calls follow the shape of the dose curve; as a rule, active = well fitted inhibition curve with a large enough effect; inconclusive = small, poorly fitted or top-dose-only effect, or effect the other way; inactive = no such curve, though single readings can be large or run the other way. A potency beside an inconclusive call is a rough fit, not a confirmed value.
% is scaled to controls: 0 for no effect and ±100 for the full control effect; potency is read from the fitted curve at half-maximal effect.
Also: nearly all actives have a fitted effect of over 60% in size.

Amino acid sequences for entries named in this document (tags omitted). A change or cut given only in a name is not applied to a line headed by its entry.
UniProt P51450: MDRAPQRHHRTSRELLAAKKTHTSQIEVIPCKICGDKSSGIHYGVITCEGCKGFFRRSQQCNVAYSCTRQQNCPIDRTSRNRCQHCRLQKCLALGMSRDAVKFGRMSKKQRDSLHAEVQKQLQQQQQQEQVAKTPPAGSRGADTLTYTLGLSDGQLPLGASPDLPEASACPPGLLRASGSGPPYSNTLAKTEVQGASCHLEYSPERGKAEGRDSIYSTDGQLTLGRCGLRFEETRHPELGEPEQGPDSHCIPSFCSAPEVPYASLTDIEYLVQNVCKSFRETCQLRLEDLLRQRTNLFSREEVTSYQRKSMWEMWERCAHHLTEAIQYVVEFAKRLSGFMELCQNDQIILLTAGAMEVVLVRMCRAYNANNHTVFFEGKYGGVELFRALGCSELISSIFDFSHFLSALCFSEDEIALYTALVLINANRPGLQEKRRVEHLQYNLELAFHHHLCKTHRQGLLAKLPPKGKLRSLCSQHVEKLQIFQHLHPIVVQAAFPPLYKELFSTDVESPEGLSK

These molecules were tested against Nuclear receptor ROR-gamma (Mus musculus) (UniProt P51450) (assay: qHTS for inhibitors of ROR gamma transcriptional activity). Settings: Drosophila S2 Gal4-RORgamma UAS-luciferase reporter, 20 h; activity change, negative = inhibition: at 53.6 µM (top of the series).
Method in brief: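 Luminescence from a UAS-regulated Photinus luciferase reporter in stably transfected Drosophila Schneider cells is measured; decreased signal marks ROR gamma inhibition. Fusion expression is induced by 700 uM copper sulfate for 20 hr.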
In the case of `Cc1cc2nc(-c3ccccn3)c(-c3ccccn3)nc2cc1C`, the Potency is reported as inconclusive: 14.1 µM [inhibitor, single point].
For `Cn1cnnc1SCC(=O)c1cccc([N+](=O)[O-])c1`, the Potency was “inactive”.
With `O=C(c1ccc(S(=O)(=O)N2CCCCC2)cc1)N1CCCc2ccccc21` the Potency was inconclusive: 5.62 µM [activator, single point].
In the case of `COc1ccccc1N=c1sc2ccccc2n1C`, the Potency is reported as inconclusive: 28.2 µM [inhibitor, single point].
`O=C(NC(=S)NCCN1CCOCC1)c1ccccc1` was tested, and the Potency was inconclusive: 35.5 µM [inhibitor, single point].
`CC(C)(C)OC(=O)N1Cc2ccccc2C[C@H]1C(=O)NCC(=O)NC1CCCCC1` was tested, and the Potency was “inactive”.
For `CCO[C@H]1OC(C(=O)NCc2ccccc2)=C[C@@H](C2CC2)[C@@H]1CCCO`, the Potency was inconclusive: 10 µM [activator, single point].
With `CCOC(=O)/C(C)=N/NC(=O)c1cccc([N+](=O)[O-])c1` the Potency was inconclusive: 11.2 µM [inhibitor, single point].
With `Cc1ccc(C(C)C)c(OCC(=O)Nc2ccc3c(c2)nc(CN2CCCC2)n3C)c1` the Potency was inconclusive: 20 µM [inhibitor, partial curve, poor fit].
In the case of `COc1ccc(Cl)cc1NC(=S)NCCSc1ccc(C)cc1`, the Potency is reported as active: 6.31 µM.
In the case of `Cc1ccc(CC(Cc2nc3ccccc3[nH]2)c2nc3ccccc3[nH]2)cc1` (stereo not given), the Potency is reported as inconclusive: 35.5 µM [inhibitor, single point].
For `CC(C)OP(=O)(OC(C)C)/C(C=O)=N\Nc1ccc([N+](=O)[O-])cc1`, the Potency was “inactive”.
`COc1cc2ccccc2cc1C(=O)NNC(=O)c1ccccc1O` was tested, and the Potency was active: 11.2 µM.
In the case of `N#C/C(=C\c1cccs1)C(=O)Nc1nccs1`, the Potency is reported as active: 7.08 µM.
`CC(C)c1ccc(N(CC(=O)NC(C)(C)C)C(=O)CCC(=O)Nc2nccs2)cc1` was tested, and the Potency was inconclusive: 25.1 µM [activator, single point].
`COc1ccc(-c2csc(NC(=O)COC(=O)Cc3ccc(Cl)cc3Cl)n2)cc1` was tested, and the Potency was inconclusive: 2.82 µM [activator, partial curve, poor fit].
In the case of `Cc1ccc(C(=O)N2CCc3ccccc32)o1`, the Potency is reported as inconclusive: 1.26 µM [activator, full curve].
In the case of `Cc1ccc(NC(=S)N(CCCN2CCCC2)Cc2cccn2Cc2ccc(Cl)cc2)cc1`, the Potency is reported as inconclusive: 17.8 µM [inhibitor, single point].
`CC(C)(C)c1ccc(-c2noc(CCC(=O)NCc3ccco3)n2)cc1` was tested, and the Potency was active: 0.316 µM.
For `CCCN(Cc1nnc(-c2ccccc2Cl)o1)C(=O)c1cccc(S(=O)(=O)N2CCOCC2)c1`, the Potency was “inactive”.
With `NS(=O)(=O)c1ccc(NC(=S)NC(=O)C2CCCC2)cc1` the Potency was “inactive”.
For `O=C(Cc1nn[nH]n1)NCc1ccccc1Cl`, the Potency was inconclusive: 20 µM [inhibitor, single point].
For `O=[N+]([O-])c1ccc(O)c2ncccc12`, the Potency was active: 708 nM and active: 282 nM.
For `CCN(CC)CCn1c2ccccc2c2nc3ccccc3nc21`, the Potency was “inactive”.
For `CCCCCOC(=O)CC(C(=O)OCCCCC)N1CCCCC1` (stereo not given), the Potency was inconclusive: 35.5 µM [activator, single point].
For `Cc1cc(NS(=O)(=O)c2ccc(NC(=O)COc3c(C)cc(Br)cc3C)cc2)no1`, the Potency was inconclusive: 31.6 µM [activator, single point].
With `CN(Cc1ccccc1)S(=O)(=O)c1ccc(N2CCOCC2)nc1` the Potency was inconclusive: 20 µM [activator, single point].
In the case of `COc1cccc(CNC(=O)CN2C(=O)COc3ccc(S(=O)(=O)N4CCCC4)cc32)c1`, the Potency is reported as “inactive”.
`O=[N+]([O-])c1cccc(-c2cn3ccccc3n2)c1` was tested, and the Potency was “inactive”.
For `S=c1nc(-c2ccccc2)n(CCCN2CCOCC2)c2c1CCCC2`, the Potency was inconclusive: 11.2 µM [inhibitor, single point].
With `CCS(=O)(=O)c1ccc(-c2csc(-c3ccccc3)n2)c(Cl)c1Cl` the Potency was inconclusive: 14.1 µM [activator, single point].
`NC(=O)Nc1ccc(Nc2ccccc2)cc1` was tested, and the Potency was “inactive”.
In the case of `CCOC(=O)c1c(CSC(=N)N)n(-c2ccc(C)cc2)c2cc(Br)c(OC(C)=O)cc12`, the Potency is reported as inconclusive: 22.4 µM [inhibitor, single point].
With `NS(=O)(=O)c1ccc2nc(NC(=O)CS(=O)(=O)c3ccc(F)cc3)sc2c1` the Potency was “inactive”.
With `Cc1ccccc1C(=O)N1CCN(c2ccc([N+](=O)[O-])c(NCc3cccnc3)c2)CC1` the Potency was inconclusive: 10 µM [activator, partial curve].
For `Cc1cc(C)nc(S/C=C/C(=O)c2ccccc2)n1`, the Potency was active: 6.31 µM.
With `CN(/N=C/c1ccc(Br)o1)C1=NS(=O)(=O)c2ccccc21` the Potency was “inactive”.
For `Cc1cc(Nc2ccc([N+](=O)[O-])cc2)nc2ccccc12`, the Potency was inconclusive: 15.8 µM [inhibitor, single point].
For `O=C(NN=C1CCCCCC1)c1ccc(Cl)s1`, the Potency was inconclusive: 22.4 µM [inhibitor, single point].
`Cc1ccsc1C(=O)Nc1ccc(C(=O)O)cc1` was tested, and the Potency was inconclusive: 6.31 µM [activator, partial curve].
With `O=C(CSc1ccccc1)N(c1ccc(Br)cc1)c1nccs1` the Potency was inconclusive: 35.5 µM [activator, single point].
In the case of `CC1(C)C(=O)OC(c2cccn2-c2cccc([N+](=O)[O-])c2)C2(CCCCC2)C1=O` (stereo not given), the Potency is reported as inconclusive: 35.5 µM [activator, single point].
With `COc1cc(O)c(C(=O)/C=C/c2ccccc2)c(OC)c1` the Potency was inconclusive: 35.5 µM [inhibitor, single point].
In the case of `CSc1nc2ccc(NS(=O)(=O)c3ccc4c(c3)OCCO4)cc2s1`, the Potency is reported as inconclusive: 15.8 µM [activator, single point].
`O=[N+]([O-])c1cc(C2Nc3cccc4cccc(c34)N2)ccc1Cl` was tested, and the activity change, negative = inhibition was inactive: -7.7% [at 10 µM].
With `Cc1ccc(NC(=O)CSc2nsc(SCC(=O)Nc3ccc(C)cc3C)c2C#N)c(C)c1` the Potency was inconclusive: 3.98 µM [inhibitor, partial curve].
`COc1ccc(OCCn2cc(/C=N/NC(=O)c3ccncc3)c3ccccc32)cc1` was tested, and the Potency was active: 5.01 µM.
`CCOc1ccc(NC(=S)N2CCCN(Cc3cccc(Cl)c3)C2)cc1` was tested, and the Potency was inconclusive: 14.1 µM [inhibitor, single point].
`Clc1c(CSc2nc3ccccc3o2)nc2ccccn12` was tested, and the Potency was inconclusive: 31.6 µM [inhibitor, single point].
In the case of `C#CC[N+]1(CC#Cc2ccccc2)CCCCC1`, the Potency is reported as “inactive”.
For `CC(C)c1ccc(/C=C2\SC(=S)N(CCC(=O)N3CCCCC3CCO)C2=O)cc1` (stereo not given), the Potency was active: 10 µM.
With `COCCCNc1oc(/C=C/c2ccccc2)nc1C#N` the Potency was “inactive”.
`O=C(NC1CCN(Cc2ccccc2)CC1)C1CCN(S(=O)(=O)c2cccc3cccnc23)CC1` was tested, and the Potency was inconclusive: 4.47 µM [activator, full curve].
In the case of `Cc1ccc(N(Cc2ccco2)C(=O)c2ccc(N3CCCCC3)c([N+](=O)[O-])c2)cc1`, the Potency is reported as inconclusive: 11.2 µM [activator, partial curve].
For `C=CCn1cc(-c2cccc(C(F)(F)F)c2)cc(C#N)c1=O`, the Potency was inconclusive: 7.94 µM [activator, partial curve].
With `COc1ccc(CNC(=O)C2CCNCC2)cc1` the Potency was inconclusive: 10 µM [inhibitor, single point].
With `S=c1[nH]nc(/C=C/c2ccccc2)o1` the Potency was active: 12.6 µM.
`O=C(NNc1nc(-c2ccccc2)cs1)c1cccs1` was tested, and the Potency was active: 7.94 µM.
With `CC(C)(C)C(=O)Nc1nnc(Cc2ccccc2)s1` the Potency was active: 12.6 µM.
For `CCCCOC(=O)c1cc2c(cn1)[nH]c1ccccc12`, the Potency was active: 15.8 µM.
For `Cc1ccc(-c2cc(-c3ccccc3)nc(NN)n2)cc1`, the Potency was inconclusive: 15.8 µM [inhibitor, single point].
In the case of `C=CCNC(=O)/C(C#N)=C/c1ccccc1OCc1ccc(C(=O)OC)cc1`, the Potency is reported as inconclusive: 3.55 µM [activator, single point].
`CC(=O)c1ccc(NC(=O)c2ccn[nH]2)cc1` was tested, and the Potency was inconclusive: 6.31 µM [inhibitor, single point].
For `CCSc1nc(=S)cc(C)[nH]1`, the Potency was inconclusive: 3.55 µM [inhibitor, full curve, poor fit].
`CCc1ccn2cc(-c3ccc4c(c3)OCO4)nc2c1` was tested, and the Potency was active: 1.12 µM.
In the case of `Cc1c(C(=O)N2CCOCC2)sc(NC(=O)CCl)c1C#N`, the Potency is reported as active: 12.6 µM.
With `CC(c1ccccc1)c1nnc(NC(=O)c2ccc3c(c2)OCO3)s1` (stereo not given) the Potency was inconclusive: 11.2 µM [inhibitor, single point].
`CSc1nc(-c2ccccc2)[nH]c(=S)c1C(C)=O` was tested, and the Potency was active: 6.31 µM.
With `CCCCNC(=S)NNC(=O)c1nn(C)c(C)c1Cl` the Potency was inconclusive: 0.251 µM [inhibitor, full curve].
`Cc1cc(=O)[nH]c(N=N/C(=N/Nc2ccc(O)cc2)c2ccccc2)n1` was tested, and the Potency was “inactive”.
In the case of `O=C(CN1CCN(c2ccc([N+](=O)[O-])cc2)CC1)Nc1ccccn1`, the Potency is reported as inconclusive: 17.8 µM [activator, partial curve].
`CC(C)C(C)NC(=O)CN1C(=O)NC2(CCCCCC2)C1=O` (stereo not given) was tested, and the Potency was “inactive”.
In the case of `COc1ccc(-c2c(C#N)c(SCc3c(C)noc3C)nc3c2C(=O)CC(C)(C)C3)cc1`, the Potency is reported as “inactive”.
In the case of `CCOC(=O)C1=C(N)OC2=C(C(=O)CC(C)C2)C1c1cccnc1` (stereo not given), the Potency is reported as inconclusive: 35.5 µM [activator, single point].
For `CC1CCCCN1C(=O)CCNC(=O)Cn1cnc2ccccc2c1=O` (stereo not given), the Potency was “inactive”.
